# Reference: PubChem BioAssay AID651705 (Broad Institute, 2012)
# This list holds what a sample rich in hits left over. The source made the active and inactive calls.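 The calls were made as follows: active = every separate test run was called active for a drop in luminescence, with AC50 within twice the top valid dose (actives reach about 71 µM in these data); inconclusive = the separate test runs disagree in their calls; inactive = all runs inactive, including signal change in the wrong direction.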
# Assay: AlphaScreen signal interference compounds, dose response, artefact control for ARNT-TACC3 interaction inhibitor project, biochemical, luminescence, cherry-pick (AID 651705);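 also: 0% = neutral control wells with protein and -100% = buffer without protein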
# Conditions: His-ARNT PASB-GST AlphaScreen artifact counter-screen; at 68 µM (top of the series)
row,SMILES,"activity change, negative = signal decrease"
1,O=C1NC[C@H](c2ccccc2)OC(=O)[C@H](Cc2ccc(F)cc2)CC/C=C/C[C@@H]1CC(=O)N(CCO)Cc1ccccc1,inactive: -22.6%
